Among the test systems are PDE4D (human); PDE4DIP (human); PDE7B (human); PDE8A (human); PDE9A (human); PDHA1 (human); PDK4 (human); PDPK1 (human); PDRG1 (human); PDSS2 (human).
What all share (experiment): protein microarray (ProtoArray v5.0), streptavidin-Alexa Fluor 647
Common to all, as to conditions: 3'-biotin; 20 mM Tris (pH 7.5), 5 mM MgCl2, 100 mM KCl, 0.1% Tween-20, A/T-rich and random oligonucleotide blockers; temperature not stated; high values mean tight binding

Several values for one entry are separate records, joined by “and”; a condition that tells them apart may be missing. Identical values can stand only once. Some of the results follow.

For “GGGAGGCTGAGGCAGG [G4-1 biotinylated (PQS2)]”, the binding signal in the assay on PDE4D (human) is -0.279 z-score; in the assay on PDE4DIP (human) it was -0.321 z-score; in the assay with PDE7B (human) it was -0.26 z-score; in the assay on PDE8A (human), -0.312 z-score; in the assay with PDE9A (human), -0.298 z-score and -0.286 z-score; in the assay with PDHA1 (human), -0.275 z-score. The binding signal was -0.345 z-score in the assay with PDK4 (human), -0.333 z-score in the assay on PDPK1 (human), -0.316 z-score with PDRG1 (human) and -0.309 z-score with PDSS2 (human).

The values above are taken from publication PMC5996148.
